The source of these data is PubChem BioAssay AID2685 (National Center for Advancing Translational Sciences (NCATS), 2010).

The other results are listed elsewhere or left out. Shown are side measurements of this screen, not its main read-out; they come without a call. Compounds called inactive in the main read-out are mostly missing here. Potencies come from curve fits of mixed quality, noted in brackets.

The nature of this assay: qHTS Assay for Lipid Storage Modulators in Drosophila S3 Cells.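 As to cell number change: cells counted by Cell Tracker Red CMTPX staining in the red channel.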 As to conditions: BODIPY lipid droplet fluorescence, 18-24 h; for cell number change: measured here: cell count max response, cells fed with added oleic acid. The essentials: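 Laser-scanning cytometry quantifies lipid droplet accumulation (500–530 nm total intensity; droplet/cell object ratio) in oleic acid-fed (400 uM added) Drosophila S3 cells treated with a concentration series. 20 uM Triacsin C defined 100% inhibition.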

The mark [1] stands for this setting: measured here: cell number channel AC50, cells fed with added oleic acid.
Setting [2] is: measured here: lipid fluorescence (Fed channel) AC50, cells fed with added oleic acid.

On to `Cc1ccc(S(=O)(=O)NCc2ccccn2)cc1C`, for which the AC50 runs as follows: under setting [1], 1.84 µM [rising, partial curve]; under setting [2], 29.1 µM [rising, single point].

Turning to `CCCCCCO`, the cell number change was 15.9%.

Consider `CCOc1ccccc1NC(=O)Cn1nnc(-c2ccc(OCC)c(OCC)c2)n1`, for which the cell number change is -52.8%. The AC50 under setting [1] was 29.1 µM [falling, single point]. Besides, under setting [2], the AC50 is 2.91 µM [rising, partial curve].

`Cc1cc(NC(=O)Cn2cc([N+](=O)[O-])cn2)no1`: the cell number change amounted to 6.33%. For the same compound, the AC50 under setting [2] was 1.64 µM [falling, partial curve].

As for `Cc1nn(S(=O)(=O)N2CCCCC2)c(C)c1Br`, the cell number change came out at 21%. Besides, the AC50 under setting [2] was 6.51 µM [falling, single point].

For `COc1ccccc1C1(O)CCN(CC(=O)Nc2nc(-c3ccccc3)cs2)CC1`, the cell number change was -28.9%. Further, the AC50 under setting [2] was 9.2 µM [falling, partial curve].

In the case of `Cc1ccccc1Nc1cc(C)c2c(O)cccc2n1`, the cell number change was -23.1%. Also, the AC50 under setting [2] is 16.4 µM [falling, partial curve].

With `COc1ccccc1C(=O)NC(CCSC)C(=O)NCCCn1nc(C)cc1C` (stereo not drawn), the cell number change stood at 25.9%. Further, under setting [2], the AC50 is 29.1 µM [rising, single point].

Turning to `CCc1c(C)[nH]n(-c2nc(-c3ccccc3)cs2)c1=O`, the AC50 under setting [2] is 29.1 µM [rising, single point].

In the case of `O=C1N=C(c2ccccc2)C(c2ccccc2)N1` (stereo not drawn), under setting [2], the AC50 was 2.59 µM [falling, single point].

Consider `Cc1ccc(NC(=O)CN(C)C(=S)NC2CC2)cc1`, for which the cell number change was -40.7%. Also, the AC50 under setting [1] was 5.17 µM [falling, full curve]. Further, the AC50 under setting [2] was 13 µM [falling, single point].

On to `COc1cc(C(=O)NNC(=O)CNC(=O)c2ccc(Br)o2)cc(OC)c1OC`, for which the cell number change worked out at 17.8%. For the same compound, the AC50 under setting [2] is 2.91 µM [rising, single point].

On to `CC(C)(CSc1ccccn1)NS(=O)(=O)c1ccc(Cl)cc1`, for which the cell number change is 8.71%. Moreover, the AC50 under setting [2] is 4.11 µM [rising, partial curve].

`CCNC(=O)COC(=O)c1cc(C)nc2ccccc12`: the cell number change amounted to 3.42%. The AC50 under setting [1] was 0.00461 µM [rising, full curve, poor fit]. Moreover, under setting [2], the AC50 was 0.092 µM [rising, full curve, poor fit].

As to `Cc1cccc(C)c1OCc1cc(C(=O)N(C)Cc2nc3ccccc3[nH]2)no1`, the cell number change was -49%. Under setting [1], the AC50 was 18.4 µM [falling, partial curve, poor fit]. In addition, under setting [2], the AC50 was 29.1 µM [falling, single point].

Regarding `O=c1onc(-c2cccnc2)n1-c1ccccc1F`, the cell number change is -15.6%. Also, the AC50 under setting [2] is 0.092 µM [rising, full curve].

As for `CCOC(=O)Nc1ccc2c(c1)N(C(=O)CCN(CC)CC)c1ccccc1CC2`, the cell number change turned out to be 5.47%.

Regarding `O=C(CN1CC(c2ccccc2)CC1=O)OCc1ccccc1F` (stereo not drawn), the cell number change is -7.08%. In addition, under setting [2], the AC50 was 0.058 µM [falling, full curve, poor fit].

As for `CCOC(=O)N1CCC(NC(=O)c2cc(C(=O)NC3CCCC3)ccc2CO)CC1`, the cell number change is -57.2%. Moreover, the AC50 under setting [1] was 16.4 µM [falling, partial curve]. Also, the AC50 under setting [2] is 23.1 µM [falling, partial curve].

With `Cc1onc(-c2ccccc2Cl)c1C(=O)Nc1c(C)n(C)n(-c2ccccc2)c1=O`, the cell number change is -13.5%.

For the compound `CCCN(CC(=O)Nc1ccccc1OC)Cc1c(O)ccc2ccccc12`, the cell number change was 10.1%. For the same compound, under setting [2], the AC50 was 29.1 µM [rising, single point].

Regarding `COc1ccc(S(=O)(=O)n2nc(C)cc2C)c(C)c1C`, under setting [1], the AC50 is 0.0651 µM [rising, full curve, poor fit].

With `COc1cccc2cc(/C(=N/O)c3ccc(Br)cc3)oc12`, the cell number change is -46.1%. Under setting [1], the AC50 was 0.447 µM [falling, full curve, poor fit]. Also, the AC50 under setting [2] was 11.2 µM [falling, partial curve].

On to `N#Cc1ccccc1CN1C(=O)S/C(=C/c2cccn2-c2ccc(C(=O)O)cc2)C1=O`, for which the cell number change was 12.7%. Also, the AC50 under setting [2] was 32.6 µM [rising, single point].

For the compound `CCOC(=O)c1sc(NC(=O)CSc2nccn2C)nc1C`, the AC50 under setting [2] is 0.00517 µM [rising, full curve, poor fit].

With `COc1ccc(CNC(=O)Cn2ccc(N)nc2=O)cc1`, the cell number change stood at 31.7%. Further, under setting [1], the AC50 is 0.092 µM [falling, single point]. In addition, under setting [2], the AC50 is 1.16 µM [rising, single point].

On to `Cc1cccc(S(=O)(=O)NCCC(=O)OC(C)C(=O)NC(=O)NC2CCCCC2)c1` (stereo not drawn), for which the cell number change is 12.4%. Under setting [2], the AC50 is 4.11 µM [falling, single point].

For `COc1ccc(S(=O)(=O)N2CCN(c3nc(-c4cccnc4)nc4ccccc34)CC2)cc1`, the cell number change is 2.31%. The AC50 under setting [2] was 0.13 µM [rising, full curve, poor fit].

In the case of `Cc1ccc(-n2nc3ccc(N)cc3n2)cc1`, the cell number change turned out to be 20.1%. In addition, the AC50 under setting [2] is 0.731 µM [rising, partial curve].

`C/C(=C\C(=O)O)C(=O)Nc1nccs1`: the cell number change is -4.03%.

As for `CN1CCN(CC#Cc2ccccc2)CC1CCO` (stereo not drawn), the cell number change came out at 15%. Under setting [2], the AC50 was 0.82 µM [rising, single point].

With `CCOC(=O)CN1CC23C=CC(O2)C(C(=O)NC2CCCCCC2)C3C1=O` (stereo not drawn), the cell number change was determined as 14.7%. Moreover, the AC50 under setting [2] was 0.731 µM [falling, full curve].

Take `CC(=O)Nc1ccc(/C=C/c2nc3ccccc3[nH]c2=O)cc1`: the cell number change was -0.833%.

Turning to `COCCn1nnnc1C(c1ccccc1OC)N1CCN(c2ccccc2F)CC1` (stereo not drawn), the cell number change came to 5.11%. In addition, the AC50 under setting [1] was 1.84 µM [rising, partial curve]. In addition, the AC50 under setting [2] was 2.06 µM [rising, full curve].

Turning to `O=C(NC1CC2CCCC(C1)N2C(=S)Nc1ccc(Cl)cc1)C1CC1` (stereo not drawn), the cell number change was -2.5%.

In the case of `O=C(C1CCCN(Cc2ccc3c(c2)OCO3)C1)N1CCCC1` (stereo not drawn), the cell number change was -20%. Also, the AC50 under setting [2] is 0.326 µM [falling, full curve, poor fit].

For the compound `COC(=O)Cn1c(CN2CCOCC2)nc2c1c(=O)[nH]c(=O)n2C`, the cell number change was -62.4%. For the same compound, the AC50 under setting [1] was 7.31 µM [falling, single point].

As to `O=C(/C=C/c1ccco1)c1cccnc1`, the cell number change is -4.76%. For the same compound, the AC50 under setting [2] is 0.13 µM [falling, full curve, poor fit].

For `Cc1ccc(S(=O)(=O)NCCC(c2ccccc2)c2ccco2)cc1` (stereo not drawn), the cell number change is -10.6%. The AC50 under setting [2] was 4.61 µM [falling, partial curve].

Turning to `N#C/C(=C\c1ccc(Sc2ccc(Cl)cc2)o1)c1nc2ccccc2[nH]1`, the cell number change was -26.6%. In addition, the AC50 under setting [2] was 16.4 µM [falling, single point].

For the compound `Cc1ccc(S(=O)(=O)N2CCC(=O)N(CCOCc3ccc(Cl)cc3)CC2)cc1`, the cell number change is 13.6%. Further, the AC50 under setting [2] was 7.31 µM [rising, partial curve].

Take `O=C(OCC#CCSc1nc2ccccc2o1)c1cc2ccccc2o1`: the cell number change was 15.4%. Further, the AC50 under setting [2] is 5.8 µM [rising, partial curve, poor fit].

For `O=C(CN1C(=O)/C(=C/c2ccccc2)SC1=S)NC1C=CS(=O)(=O)C1` (stereo not drawn), the cell number change came to 24.8%. The AC50 under setting [2] is 29.1 µM [falling, single point].

Turning to `Cc1onc(-c2ccccc2)c1C(=O)Nc1nc(-c2cc(F)ccc2F)cs1`, the cell number change came out at 4.51%. Further, the concentration at half-maximal activity (AC50) under setting [2] was 11.6 µM [rising, partial curve].

As to `O=C(N/N=C\c1ccc([N+](=O)[O-])s1)C1COc2ccccc2O1` (stereo not drawn), the cell number change was -53.8%. For the same compound, the AC50 under setting [1] was 35.5 µM [falling, single point]. Besides, the AC50 under setting [2] is 35.5 µM [falling, single point].

As to `CCCCOc1ccccc1NC(=O)C=C(C)C`, the cell number change was 7.66%. For the same compound, under setting [2], the AC50 was 5.17 µM [rising, partial curve].

Regarding `CC1C=CCC2C(=O)N(c3cccc(C(=O)Nc4ccc(F)cc4)c3)C(=O)C12` (stereo not drawn), under setting [2], the AC50 is 29.1 µM [falling, partial curve, poor fit].

As for `CCC(CO)Oc1cc(NC(=O)c2ccccc2)c2ncn(C(C)C)c2c1` (stereo not drawn), the cell number change is -8.78%. For the same compound, under setting [2], the half-maximal activity concentration (AC50) was 0.184 µM [falling, full curve].

With `O=c1[nH]c(SCc2ccccc2[N+](=O)[O-])nc2nc[nH]c12`, the cell number change came out at 23%. The AC50 under setting [2] is 10.3 µM [rising, partial curve].

With `Cn1nc(CC(=O)Nc2cccnc2N2CCOCC2)c2ccccc2c1=O`, the cell number change is 2.44%.

Regarding `CC1=C(C(=O)Nc2ccccc2)C(c2ccc(C)cc2)N=C(Nc2nc3ccccc3o2)N1` (stereo not drawn), the cell number change is -1.76%.

As for `CCCn1c(=O)c(C(=O)NCCc2ccc(OC)cc2)c(O)c2ccccc21`, the cell number change was found to be 6.08%. For the same compound, the AC50 under setting [2] is 14.6 µM [rising, partial curve].

Take `COC(=O)c1c(-c2ccc(OC)cc2)sc2ccccc12`: the cell number change is -20.7%. The AC50 under setting [2] is 0.517 µM [falling, full curve].

In the case of `COc1cc(/C=N/NC(=O)c2cccnc2)ccc1OC(=O)c1cc(OC)c(OC)c(OC)c1`, the cell number change is -0.87%. In addition, the AC50 under setting [2] is 29.1 µM [rising, single point].

In the case of `CC1CCCC(NC(=O)CN2CCN(S(=O)(=O)c3ccc(Br)s3)CC2)C1C` (stereo not drawn), the cell number change is -52.9%. Also, the half-maximal activity concentration (AC50) under setting [1] was 23.1 µM [falling, partial curve].

For `COc1ccccc1NC(=O)Nc1ccncc1`, the AC50 under setting [1] was 0.58 µM [rising, single point] and the AC50 under setting [2] is 0.651 µM [rising, full curve, poor fit].

For the compound `CNC(=S)N1N=C(c2ccc(Br)cc2)CC1c1ccc(Br)cc1` (stereo not drawn), the cell number change was found to be 25%. The AC50 under setting [1] was 0.058 µM [rising, full curve, poor fit].

For the compound `CCN(CC(=O)Nc1ccccc1C(F)(F)F)C(=O)Cc1ccc2c(c1)CCC2`, the cell number change was -56.7%. For the same compound, the AC50 under setting [1] was 0.58 µM [falling, full curve, poor fit]. The AC50 under setting [2] was 0.411 µM [falling, full curve].

Consider `CSc1ccccc1NC(=O)c1cc2c(=O)n3ccccc3nc2s1`, for which the cell number change is -9.7%.

Take `O=C(Cc1ccsc1)NCC(=O)Nc1ccc(F)c(F)c1`: the AC50 under setting [1] was 4.11 µM [rising, partial curve, poor fit].

With `COC(=O)c1cccc(NS(C)(=O)=O)c1C`, the AC50 under setting [2] is 32.6 µM [falling, single point].

Turning to `Cc1cnc(C(=O)OCC(=O)Nc2ccc(OCc3ccccc3)cc2)cn1`, the cell number change is -4.1%. Also, under setting [1], the AC50 is 0.00461 µM [falling, full curve, poor fit].

In general, AC50 refers to the concentration giving half of the maximal activity seen.
